Laboratory results: PubChem BioAssay AID1259308 (NCATS, 2017)
Here is one part, drawn at random, of about 59,000 deposited reagents. About 1,510 of all reagents (2.6%) were called active. 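Calls use total luciferase alone and ignore viability, so some active siRNAs may act by altering cell number.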 The numbers tell different reagents against one gene apart. Not all columns of the deposit are shown. No sequences are given here.

- Assay: 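Candidate targets for better recombinant protein yield in mammalian cells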 (primary screen)
- System: human HEK293 embryonic kidney cells stably expressing firefly luciferase (HEK-CMV-Luc2-Hygro)
- Reagents: single siRNA against human genes, 0.8 pmol siRNA per well
- Timing: 72 h
- Read-out: 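Luciferase light (ONE-Glo) measured on one replicate plate set and viability (CellTiter-Glo) on the other, scaled to a negative control siRNA, with robust z-scores and luciferase per cell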
- Direction: total luciferase, z-score and total luciferase, % of control: higher = more reporter protein produced
- Hit rule: 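An siRNA counts as active if its total luciferase robust z-score exceeds 3; genes with two or more such siRNAs out of three were retested with fresh siRNAs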
- Meaning of the calls: active = raised luciferase; inactive = no rise

| Target gene | reagent no. | total luciferase, z-score | total luciferase, % of control | Call |
| --- | --- | --- | --- | --- |
| ZNF681 (GeneID 148213) | 1 | 1.08 | 103 | inactive |
| ZNF681 (GeneID 148213) | 2 | -1.03 | 61.4 | inactive |
| ZNF681 (GeneID 148213) | 3 | 0.326 | 88.4 | inactive |
| MAGI3 (GeneID 260425) | 1 | -0.291 | 76.1 | inactive |
| MAGI3 (GeneID 260425) | 2 | -1.37 | 54.6 | inactive |
| MAGI3 (GeneID 260425) | 3 | -1.15 | 59 | inactive |
| CDSN (GeneID 1041) | 1 | -2.3 | 36.1 | inactive |
| CDSN (GeneID 1041) | 2 | 0.758 | 97 | inactive |
| CDSN (GeneID 1041) | 3 | 3.94 | 160 | active |
| CUL3 (GeneID 8452) | 1 | -0.693 | 68.1 | inactive |
| CUL3 (GeneID 8452) | 2 | 1.2 | 106 | inactive |
| CUL3 (GeneID 8452) | 3 | 0.748 | 96.8 | inactive |
| EHD2 (GeneID 30846) | 1 | 2.39 | 130 | inactive |
| EHD2 (GeneID 30846) | 2 | 2.53 | 132 | inactive |
| EHD2 (GeneID 30846) | 3 | 0.726 | 96.3 | inactive |
| PRKCZ (GeneID 5590) | 1 | -0.715 | 67.7 | inactive |
| PRKCZ (GeneID 5590) | 2 | 0.0643 | 83.2 | inactive |
| PRKCZ (GeneID 5590) | 3 | 0.546 | 92.7 | inactive |
| LRCH3 (GeneID 84859) | 1 | 0.876 | 99.3 | inactive |
| LRCH3 (GeneID 84859) | 2 | -0.116 | 79.6 | inactive |
| LRCH3 (GeneID 84859) | 3 | -0.602 | 69.9 | inactive |
| CPNE6 (GeneID 9362) | 1 | -1.09 | 60.3 | inactive |
| CPNE6 (GeneID 9362) | 2 | 0.323 | 88.3 | inactive |
| CPNE6 (GeneID 9362) | 3 | 0.912 | 100 | inactive |
| LRRC37A17P (GeneID 644397) | 1 | -1.48 | 52.4 | inactive |
| LRRC37A17P (GeneID 644397) | 2 | 0.0393 | 82.7 | inactive |
| LRRC37A17P (GeneID 644397) | 3 | -0.659 | 68.8 | inactive |
| LRRC37A17P (GeneID 644397) | 4 | -0.556 | 70.8 | inactive |
| LRRC37A17P (GeneID 644397) | 5 | 0.35 | 88.8 | inactive |
| LRRC37A17P (GeneID 644397) | 6 | -0.143 | 79 | inactive |
| DNER (GeneID 92737) | 1 | 3.14 | 144 | active |
| DNER (GeneID 92737) | 2 | 0.447 | 90.8 | inactive |
| DNER (GeneID 92737) | 3 | 0.244 | 86.7 | inactive |
| RNF168 (GeneID 165918) | 1 | -1.11 | 59.9 | inactive |
| RNF168 (GeneID 165918) | 2 | 0.614 | 94.1 | inactive |
| RNF168 (GeneID 165918) | 3 | -0.829 | 65.4 | inactive |
| DUSP26 (GeneID 78986) | 1 | 1.69 | 116 | inactive |
| DUSP26 (GeneID 78986) | 2 | 2.55 | 133 | inactive |
| DUSP26 (GeneID 78986) | 3 | 1.98 | 121 | inactive |
| ITFG1 (GeneID 81533) | 1 | 2.17 | 125 | inactive |
| ITFG1 (GeneID 81533) | 2 | -0.312 | 75.7 | inactive |
| ITFG1 (GeneID 81533) | 3 | 0.0996 | 83.9 | inactive |
| ZNF574 (GeneID 64763) | 1 | -1.48 | 52.5 | inactive |
| ZNF574 (GeneID 64763) | 2 | -0.551 | 70.9 | inactive |
| ZNF574 (GeneID 64763) | 3 | -0.655 | 68.9 | inactive |
| ASB15 (GeneID 142685) | 1 | -0.0455 | 81 | inactive |
| ASB15 (GeneID 142685) | 2 | 0.0785 | 83.4 | inactive |
| ASB15 (GeneID 142685) | 3 | 0.692 | 95.6 | inactive |
| IGLV5-39 (GeneID 28782) | 1 | 2.91 | 140 | inactive |
| IGLV5-39 (GeneID 28782) | 2 | -0.0551 | 80.8 | inactive |
| IGLV5-39 (GeneID 28782) | 3 | -0.893 | 64.1 | inactive |
| NKX2-4 (GeneID 644524) | 1 | 1.2 | 106 | inactive |
| NKX2-4 (GeneID 644524) | 2 | -0.402 | 73.9 | inactive |
| NKX2-4 (GeneID 644524) | 3 | 3.29 | 147 | active |
| GSC (GeneID 145258) | 1 | -0.589 | 70.2 | inactive |
| GSC (GeneID 145258) | 2 | 0.201 | 85.9 | inactive |
| GSC (GeneID 145258) | 3 | -0.24 | 77.1 | inactive |
